PubChem BioAssay AID1508587 | Peter MacCallum Cancer Centre – 2020
Screen: 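Retest of knockdowns boosting BRAF inhibitor action on lactate release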 (follow-up of hits). Cells: human WM266.4 melanoma cells with a BRAF V600 mutation. Knock-down reagent: single siRNA against human genes, 25 nM. Duration: 96 h. Conditions: vemurafenib 300 nM (about IC25), given 48 h after transfection for 48 h. Measured: 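Medium lactate read by absorbance over DAPI-counted nuclei; ratio with versus without vemurafenib, set against non-targeting siRNA, averaged over 2 replicates; cell number also recorded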. Reading the numbers: lactate per cell, drug vs no drug: higher = less drug-induced drop in lactate per cell. Hit rule: 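a duplex is active when its lactate-per-cell ratio with versus without drug falls under 0.55, i.e. 2 SD below non-targeting; a gene is confirmed if 2 or more of 4 duplexes pass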.
Here is one part, drawn at random, of about 1,600 reagents. 623 of all reagents (39%) count as active. 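Calls are for each duplex; lactate ratios contain extreme outliers.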 The numbers tell different reagents against one gene apart. Further read-outs or replicates are left out here. Reagent sequences are not shown.

lactate per cell, drug vs no drug, by gene knocked down and reagent
LRRC34 (GeneID 151827): #1 0.6 inactive; #2 0.36 active; #3 0.7 inactive; #4 0.58 inactive
KLC2 (GeneID 64837): #1 0.53 active; #2 0.31 active; #3 0.63 inactive; #4 0.61 inactive
GALNT2 (GeneID 2590): #1 0.49 active; #2 0.57 inactive; #3 0.47 active; #4 0.44 active

Laid out differently: entries from further up.
GALNT2 (GeneID 2590) #3
- lactate per cell, drug vs no drug: 0.47
- call: active

GALNT2 (GeneID 2590) #4
- lactate per cell, drug vs no drug: 0.44
- call: active

Continued:
lactate per cell, drug vs no drug, by gene knocked down and reagent
ING5 (GeneID 84289): #1 0.52 active; #2 0.66 inactive; #3 0.7 inactive; #4 0.52 active
PCNP (GeneID 57092): #1 0.59 inactive; #2 0.48 active; #3 0.39 active; #4 0.5 active
